PubChem BioAssay AID493246 | Drosophila RNAi Screening Center, 2011

Assay: 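Genome-wide search for dsRNAs that reduce cell number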 (primary screen)
Cells: Drosophila Kc and S2R+ cells
Reagent: long dsRNA against Drosophila genes
Read-out: 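Raw, unnormalised count of remaining cells in each well; per-plate z-scores of cell number underlie the calls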
Reading the numbers: Kc cell number and S2R+ cell number: higher = more cells remaining
Rule for the call: 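Counted as a hit if cell number falls by a z-score of at least 3 within its plate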
The deposit covers about 21,000 reagents; this is an unselected part of those with a known target gene and a result. In the full data, 429 (2%) got an active call. 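Values are raw and not normalised between plates; calls rest on per-plate z-scores that were not deposited.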 Entries without a mark were called inactive. Names joined by + are all predicted targets of the reagent. Not stated in the record: the amount of reagent, the time to read-out.

{"target": "CG9953 (GeneID 38763)", "amplicon": "DRSC11106", "Kc cell number, rep 1": 1.77e6, "Kc cell number, rep 2": 1.72e6, "S2R+ cell number, rep 1": 1.15e6, "S2R+ cell number, rep 2": 1.14e6}
{"target": "obst-G (GeneID 39355)", "amplicon": "DRSC11103", "Kc cell number, rep 1": 1.37e6, "Kc cell number, rep 2": 1.41e6, "S2R+ cell number, rep 1": 1.15e6, "S2R+ cell number, rep 2": 1.28e6}
{"target": "CG12643 (GeneID 50416)", "amplicon": "DRSC17849", "Kc cell number, rep 1": 1.64e6, "Kc cell number, rep 2": 1.51e6, "S2R+ cell number, rep 1": 1.15e6, "S2R+ cell number, rep 2": 1.29e6}
{"target": "CG18675 (GeneID 50169)", "amplicon": "DRSC08536", "Kc cell number, rep 1": 1.56e6, "Kc cell number, rep 2": 1.47e6, "S2R+ cell number, rep 1": 1.07e6, "S2R+ cell number, rep 2": 1.19e6}
{"target": "CG5880 (GeneID 43268)", "amplicon": "DRSC15906", "Kc cell number, rep 1": 5.00e5, "S2R+ cell number, rep 1": 8.29e5}
{"target": "Fcp3C (GeneID 31294)", "amplicon": "DRSC18665", "Kc cell number, rep 1": 1.50e6, "Kc cell number, rep 2": 1.51e6, "S2R+ cell number, rep 1": 1.07e6, "S2R+ cell number, rep 2": 1.22e6}
{"target": "Anp (GeneID 43595)", "amplicon": "DRSC14112", "Kc cell number, rep 1": 1.36e6, "Kc cell number, rep 2": 1.52e6, "S2R+ cell number, rep 1": 9.23e5, "S2R+ cell number, rep 2": 1.15e6}
{"target": "CG2871 (GeneID 31411)", "amplicon": "DRSC18230", "Kc cell number, rep 1": 1.41e6, "Kc cell number, rep 2": 1.38e6, "S2R+ cell number, rep 1": 1.02e6, "S2R+ cell number, rep 2": 1.20e6}
{"target": "Zip88E (GeneID 41847)", "amplicon": "DRSC15562", "Kc cell number, rep 1": 1.30e6, "Kc cell number, rep 2": 1.53e6, "S2R+ cell number, rep 1": 9.48e5, "S2R+ cell number, rep 2": 1.03e6}
{"target": "CG40191 (GeneID 3354930)", "amplicon": "DRSC21041", "Kc cell number, rep 1": 1.65e6, "Kc cell number, rep 2": 1.66e6, "S2R+ cell number, rep 1": 1.03e6, "S2R+ cell number, rep 2": 1.22e6}
{"target": "PIG-H + Kmn2", "amplicon": "DRSC12653", "Kc cell number, rep 1": 1.55e6, "Kc cell number, rep 2": 1.71e6, "S2R+ cell number, rep 1": 9.42e5, "S2R+ cell number, rep 2": 1.09e6}
{"target": "CG14511 (GeneID 43445)", "amplicon": "DRSC14863", "Kc cell number, rep 1": 1.49e6, "Kc cell number, rep 2": 1.47e6, "S2R+ cell number, rep 1": 1.04e6, "S2R+ cell number, rep 2": 1.16e6}
{"target": "ana (GeneID 35913)", "amplicon": "DRSC07579", "Kc cell number, rep 1": 1.38e6, "Kc cell number, rep 2": 1.40e6, "S2R+ cell number, rep 1": 1.07e6, "S2R+ cell number, rep 2": 1.18e6}
{"target": "RagA-B (GeneID 41071)", "amplicon": "DRSC14450", "Kc cell number, rep 1": 1.62e6, "Kc cell number, rep 2": 1.74e6, "S2R+ cell number, rep 1": 1.42e6, "S2R+ cell number, rep 2": 1.48e6}

Continued; the last 3 above are carried over.
{"target": "CG14511 (GeneID 43445)", "amplicon": "DRSC14863", "Kc cell number, rep 1": 1.49e6, "Kc cell number, rep 2": 1.47e6, "S2R+ cell number, rep 1": 1.04e6, "S2R+ cell number, rep 2": 1.16e6}
{"target": "ana (GeneID 35913)", "amplicon": "DRSC07579", "Kc cell number, rep 1": 1.38e6, "Kc cell number, rep 2": 1.40e6, "S2R+ cell number, rep 1": 1.07e6, "S2R+ cell number, rep 2": 1.18e6}
{"target": "RagA-B (GeneID 41071)", "amplicon": "DRSC14450", "Kc cell number, rep 1": 1.62e6, "Kc cell number, rep 2": 1.74e6, "S2R+ cell number, rep 1": 1.42e6, "S2R+ cell number, rep 2": 1.48e6}
{"target": "mms4 (GeneID 36136)", "amplicon": "DRSC06249", "Kc cell number, rep 1": 1.62e6, "Kc cell number, rep 2": 1.64e6, "S2R+ cell number, rep 1": 1.32e6, "S2R+ cell number, rep 2": 1.46e6}
{"target": "CG31140 (GeneID 42836)", "amplicon": "DRSC13649", "Kc cell number, rep 1": 1.32e6, "Kc cell number, rep 2": 1.49e6, "S2R+ cell number, rep 1": 1.09e6, "S2R+ cell number, rep 2": 1.21e6}
{"target": "CG31140 (GeneID 42836)", "amplicon": "DRSC14603", "Kc cell number, rep 1": 1.49e6, "Kc cell number, rep 2": 1.53e6, "S2R+ cell number, rep 1": 1.20e6, "S2R+ cell number, rep 2": 1.26e6}
{"target": "CG31140 (GeneID 42836)", "amplicon": "DRSC15904", "Kc cell number, rep 1": 1.64e6, "Kc cell number, rep 2": 1.55e6, "S2R+ cell number, rep 1": 1.02e6, "S2R+ cell number, rep 2": 1.14e6}
{"target": "Rtnl2 (GeneID 40903)", "amplicon": "DRSC12609", "Kc cell number, rep 1": 1.49e6, "Kc cell number, rep 2": 1.60e6, "S2R+ cell number, rep 1": 1.28e6, "S2R+ cell number, rep 2": 1.41e6}
{"target": "CG15347 (GeneID 31779)", "amplicon": "DRSC18031", "Kc cell number, rep 1": 1.61e6, "Kc cell number, rep 2": 1.60e6, "S2R+ cell number, rep 1": 1.05e6, "S2R+ cell number, rep 2": 1.21e6}
{"target": "Flad2 (GeneID 34759)", "amplicon": "DRSC02531", "Kc cell number, rep 1": 1.54e6, "Kc cell number, rep 2": 1.55e6, "S2R+ cell number, rep 1": 1.26e6, "S2R+ cell number, rep 2": 1.42e6}
{"target": "CG11537 (GeneID 38373)", "amplicon": "DRSC08200", "Kc cell number, rep 1": 1.02e6, "Kc cell number, rep 2": 1.38e6, "S2R+ cell number, rep 1": 1.27e6, "S2R+ cell number, rep 2": 8.93e5}
{"target": "NetB (GeneID 32400)", "amplicon": "DRSC20262", "Kc cell number, rep 1": 5.41e5, "S2R+ cell number, rep 1": 8.40e5}
{"target": "CG15357 (GeneID 50192)", "amplicon": "DRSC00387", "Kc cell number, rep 1": 1.47e6, "Kc cell number, rep 2": 1.53e6, "S2R+ cell number, rep 1": 1.07e6, "S2R+ cell number, rep 2": 1.21e6}
{"target": "Smyd4-2 (GeneID 39414)", "amplicon": "DRSC10126", "Kc cell number, rep 1": 1.72e6, "Kc cell number, rep 2": 1.72e6, "S2R+ cell number, rep 1": 1.25e6, "S2R+ cell number, rep 2": 1.32e6}
{"target": "CG15745 (retired record) (GeneID 32283)", "amplicon": "DRSC19711", "Kc cell number, rep 1": 1.72e6, "Kc cell number, rep 2": 1.80e6, "S2R+ cell number, rep 1": 1.09e6, "S2R+ cell number, rep 2": 1.21e6}
{"target": "CG30283 (GeneID 37454)", "amplicon": "DRSC04071", "Kc cell number, rep 1": 1.56e6, "Kc cell number, rep 2": 1.60e6, "S2R+ cell number, rep 1": 1.36e6, "S2R+ cell number, rep 2": 3.52e5}
